Experimental data taken from paper PMC6312545.
These are yes or no findings as the source states them, for the method shown. In cells and extracts the contact can be indirect. Some results given as binding are weak or reduced against the parent protein; the word gives no strength.

The chains behind the UniProt entries cited, without tags or fusion partners.
UniProt O43524: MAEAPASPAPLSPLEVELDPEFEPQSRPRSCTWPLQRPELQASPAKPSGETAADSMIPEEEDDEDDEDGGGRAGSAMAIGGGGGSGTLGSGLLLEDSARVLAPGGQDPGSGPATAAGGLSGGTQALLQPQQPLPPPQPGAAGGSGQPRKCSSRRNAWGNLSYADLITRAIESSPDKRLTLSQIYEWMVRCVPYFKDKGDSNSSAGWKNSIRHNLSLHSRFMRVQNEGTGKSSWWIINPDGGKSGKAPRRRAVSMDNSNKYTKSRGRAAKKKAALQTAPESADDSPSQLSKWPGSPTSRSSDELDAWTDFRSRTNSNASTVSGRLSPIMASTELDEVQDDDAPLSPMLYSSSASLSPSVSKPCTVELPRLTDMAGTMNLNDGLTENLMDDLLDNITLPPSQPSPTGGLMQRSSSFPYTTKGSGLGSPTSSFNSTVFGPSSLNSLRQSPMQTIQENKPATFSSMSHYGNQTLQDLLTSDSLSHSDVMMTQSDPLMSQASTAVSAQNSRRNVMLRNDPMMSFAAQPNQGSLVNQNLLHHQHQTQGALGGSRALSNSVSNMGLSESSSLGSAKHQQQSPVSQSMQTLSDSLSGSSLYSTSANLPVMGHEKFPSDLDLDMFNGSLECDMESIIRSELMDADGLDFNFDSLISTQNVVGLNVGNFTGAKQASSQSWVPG
UniProt P31751: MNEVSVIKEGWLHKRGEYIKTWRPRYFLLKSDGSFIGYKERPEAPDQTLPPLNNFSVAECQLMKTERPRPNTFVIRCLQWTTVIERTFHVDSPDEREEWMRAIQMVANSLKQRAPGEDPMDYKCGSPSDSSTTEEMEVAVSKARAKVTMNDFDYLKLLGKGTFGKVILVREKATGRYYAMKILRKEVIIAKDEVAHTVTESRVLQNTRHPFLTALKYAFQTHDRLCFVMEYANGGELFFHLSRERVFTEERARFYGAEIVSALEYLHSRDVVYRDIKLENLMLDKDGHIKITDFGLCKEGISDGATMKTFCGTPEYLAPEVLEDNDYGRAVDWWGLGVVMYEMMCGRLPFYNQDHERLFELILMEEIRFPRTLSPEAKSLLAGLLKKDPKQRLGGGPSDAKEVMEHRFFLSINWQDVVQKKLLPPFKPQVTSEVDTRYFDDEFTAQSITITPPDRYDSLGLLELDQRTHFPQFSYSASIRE
UniProt P31749: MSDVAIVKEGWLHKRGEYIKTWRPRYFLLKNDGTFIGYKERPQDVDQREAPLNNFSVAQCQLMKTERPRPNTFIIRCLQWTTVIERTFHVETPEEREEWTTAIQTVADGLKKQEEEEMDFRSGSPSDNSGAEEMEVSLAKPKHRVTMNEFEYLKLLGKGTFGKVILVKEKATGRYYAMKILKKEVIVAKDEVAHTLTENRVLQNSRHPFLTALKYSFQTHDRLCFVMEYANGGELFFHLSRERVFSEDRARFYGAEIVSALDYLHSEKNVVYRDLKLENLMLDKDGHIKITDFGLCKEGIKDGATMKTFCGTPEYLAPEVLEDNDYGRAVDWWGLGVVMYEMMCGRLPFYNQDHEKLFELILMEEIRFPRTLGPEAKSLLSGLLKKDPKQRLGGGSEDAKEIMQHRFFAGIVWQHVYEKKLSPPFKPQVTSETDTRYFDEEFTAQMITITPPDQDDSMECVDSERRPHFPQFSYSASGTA

Columns and labels:
[1] = molecular target: endogenous FoxO3a (human (endogenous in Jurkat)) (UniProt O43524); assay: co-IP; endogenous proteins of Jurkat T-ALL cells; FoxO3a immunoprecipitated, blotted for Akt1 or Akt2
[2] = molecular target: MYC-FoxO3a (UniProt O43524); assay: co-IP; HEK293T co-transfected with MYC-FoxO3a and Flag-Akt1 or Flag-Akt2; RIPA lysate 24 h later; immunoprecipitated with anti-MYC antibody, protein G PLUS-Agarose, four washes with lysis buffer; blotted with anti-MYC and anti-Akt1 or Akt2
[3] = molecular target: Flag-Akt2 (UniProt P31751); assay: co-IP; reciprocal: HEK293T co-transfected with MYC-FoxO3a and Flag-Akt1 or Flag-Akt2; RIPA lysate; immunoprecipitated with anti-Flag antibody (legend: Akt1/Akt2 immunoprecipitation), protein G PLUS-Agarose; blotted for FoxO3a

| binding [2] | Substance | other results |
| --- | --- | --- |
| – | Akt2 (endogenous, Jurkat) (from UniProt P31751 1-481) (enzyme) | binding [1]: binds |
| binds | Flag-Akt1 (from UniProt P31749 1-480) (enzyme) | – |
| binds | Flag-Akt2 (from UniProt P31751 1-481) (enzyme) | – |
| – | MYC-FoxO3a (from UniProt O43524 1-673) | binding [3]: binds |
